Some results were stated once for a whole list of compounds, not compound by compound.
Tests used:
Type in all cases: in vivo
[1] = tested on: Common Cutworm (Spodoptera litura); experiment: Test on controlling effects against common cutworm (cabbage leaf disk dip); conditions: 800 ppm, cabbage leaf disk dipped about 10 seconds, second-third instar larvae, fifth day after the release, 25° C.
Source text: Test on Controlling Effects Against Common Cutworm (Spodoptera litura)
Mortality (%)=(Number of dead larvae/number of released larvae)×100

[2] = tested on: Green Peach Aphid (Myzus persicae); experiment: Test on controlling effects against green peach aphid (leaf dip); conditions: 800 ppm, Japanese radish leaf dipped about 10 seconds, first instar nymphs, counted 5 days after the treatment, 25° C.
Source text: Test on Controlling Effects Against Green Peach Aphid (Myzus persicae)
Mortality (%)=(1−(number of survived insects/number of treated insects))×100

[3] = tested on: Two-Spotted Spider Mite (Tetranychus urticae); experiment: Test on adults of two-spotted spider mite (kidney bean leaf dip); conditions: 800 ppm, adults dipped together with kidney bean leaf, second or third day after the treatment, 25° C.
Source text: Test on Adults of Two-Spotted Spider Mite (Tetranychus urticae)
Mortality of adults (%)=(Number of dead two-spotted spider mites/Number of treated two-spotted spider mites)×100

SMILES | mortality [1] | mortality [2] | mortality of adults [3]
CCSCCN(Cc1ccccn1)c1cc(C(F)(F)F)c(Cl)c(Cl)n1 [compound 205] | at least 90% | at least 90% | at least 90%
Cc1c(NC(C)c2ccccn2)nc(C(F)(F)F)c(Cl)c1C(F)(F)F (racemic) [compound 183] | at least 90% | at least 90% | at least 90%
CCc1c(NCc2ccccn2)nc(C(F)(F)F)c(Cl)c1C(F)(F)F [compound 184] | at least 90% | at least 90% | at least 90%
FC(F)(F)c1cc(N(Cc2ccccn2)CC2OCCS2)nc(Cl)c1Cl (stereo not shown) [compound 260] | at least 90% | at least 90% | at least 90%
N#Cc1c(C(F)(F)F)cc(N(Cc2ccccn2)Cc2ccccn2)nc1C(F)(F)F [Compound No. 314] | at least 90% | at least 90% | at least 90%
FC(F)(F)c1cc(N(Cc2ccccn2)CC2CC(Cl)=NO2)nc(Cl)c1Cl (stereo not shown) [compound 149] | at least 90% | at least 90% | at least 90%
Cc1nc(N(Cc2ccccn2)Cc2ccccn2)cc(C(F)(F)F)c1[N+](=O)[O-] [compound 95] | at least 90% | at least 90% | at least 90%
Cc1ccc(CN(Cc2ccccn2)c2cc(C(F)(F)F)c(Cl)c(Cl)n2)cn1 [compound 311] | at least 90% | at least 90% | at least 90%
CC[S+]([O-])C(CN(Cc1ccccn1)c1cc(C(F)(F)F)c(Cl)c(Cl)n1)[S+]([O-])CC (mixture of isomers) [compound 220] | at least 90% | at least 90% | at least 90%
CC1=C(CN(Cc2ccccn2)c2cc(C(F)(F)F)c(Cl)c(Cl)n2)SCCO1 [compound 262] | at least 90% | at least 90% | at least 90%
CSCN(Cc1ccccn1)c1cc(C(F)(F)F)c(Cl)c(Cl)n1 [compound 204] | at least 90% | at least 90% | at least 90%
CSc1nc(N(Cc2ccccn2)Cc2ccccn2)cc(C(F)(F)F)c1Cl [compound 99] | at least 90% | at least 90% | at least 90%
Fc1ccc(CN(Cc2ccccn2)c2cc(C(F)(F)F)c(Cl)c(Cl)n2)nc1 [compound 291] | at least 90% | at least 90% | at least 90%
Cc1nc(NCc2ccccn2)c(Cl)c(C(F)(F)F)c1Cl [compound 98] | at least 90% | at least 90% | at least 90%
OCCN(Cc1ccccn1)c1cc(C(F)(F)F)c(Cl)c(Cl)n1 [compound 202] | at least 90% | at least 90% | –
FC(F)(F)c1cc(N(Cc2cccnc2)Cc2ccccn2)nc(C(F)(F)F)c1Cl [compound 116] | at least 90% | at least 90% | –
FC(F)(F)c1cc(N(Cc2ccccn2)CC2CCCO2)nc(Cl)c1Cl (stereo not shown) [compound 255] | at least 90% | at least 90% | at least 90%
CCSC(CN(Cc1ccccn1)c1cc(C(F)(F)F)c(Cl)c(Cl)n1)SCC [compound 218] | at least 90% | at least 90% | at least 90%
COC(=O)C(C)N(Cc1ccccn1)c1cc(C(F)(F)F)c(Cl)c(Cl)n1 (stereo not shown) [compound 225] | at least 90% | at least 90% | at least 90%
CN1CCCC1CN(Cc1ccccn1)c1cc(C(F)(F)F)c(Cl)c(Cl)n1 (stereo not shown) [compound 145] | at least 90% | at least 90% | –
Cc1nc(NCc2ccccn2)c(C)c(C(F)(F)F)c1Cl [compound 175] | at least 90% | at least 90% | at least 90%
COCCN(Cc1ccccn1)c1cc(C(F)(F)F)c(Cl)c(C(F)(F)F)n1 [compound 173] | at least 90% | at least 90% | at least 90%
CC(c1ccccn1)N(Cc1ccccn1)c1cc(C(F)(F)F)c(C#N)c(C(F)(F)F)n1 (stereo not shown) [compound 320] | at least 90% | at least 90% | at least 90%
Cc1ccc(CN(Cc2ccccn2)c2cc(C(F)(F)F)c(Cl)c(C(F)(F)F)n2)cn1 [compound 312] | at least 90% | at least 90% | at least 90%
FC(F)(F)c1cc(Cl)nc(NCc2ccccn2)c1Cl [compound 117] | at least 90% | at least 90% | –

SMILES | mortality [1] | mortality [2] | mortality of adults [3]
FC(F)(F)c1cc(N(Cc2ccccn2)CC2CCOC2)nc(Cl)c1Cl (stereo not shown) [compound 257] | at least 90% | at least 90% | at least 90%
CSc1c(NCc2ccccn2)nc(C(F)(F)F)c(Cl)c1C(F)(F)F [compound 185] | at least 90% | at least 90% | at least 90%
Cc1ccc(CN(Cc2ccccn2)c2cc(C(F)(F)F)c(Cl)c(Cl)n2)nc1 [compound 290] | at least 90% | at least 90% | at least 90%
CCSC(CN(Cc1ccccn1)c1cc(C(F)(F)F)c(Cl)c(C(F)(F)F)n1)SCC [compound 219] | at least 90% | at least 90% | at least 90%
Cc1c(NCc2ccccn2)nc(Cl)c(Cl)c1C(F)(F)F [compound 174] | at least 90% | at least 90% | at least 90%
FC(F)(F)c1cc(N(Cc2cccnc2)Cc2ccccn2)nc(C(F)(F)F)c1Br [compound 318] | at least 90% | at least 90% | at least 90%
N#Cc1c(C(F)(F)F)cc(NCc2ccccn2)nc1Cl [compound 20] | at least 90% | at least 90% | –
Cc1c(NCc2ccccn2)ncc(C#N)c1C(F)(F)F [compound 177] | at least 90% | at least 90% | –
O=C(O)CCN(Cc1ccccn1)c1cc(C(F)(F)F)c(Cl)c(Cl)n1 [compound 239] | at least 90% | at least 90% | –
CSc1nc(NCc2ccccn2)c(Cl)c(C(F)(F)F)c1Cl [compound 124] | at least 90% | at least 90% | –
CC(c1ccccn1)N(Cc1ccccn1)c1cc(C(F)(F)F)c(Cl)c(C(F)(F)F)n1 (stereo not shown) [compound 164] | at least 90% | – | at least 90%
CC(C)(c1ccccn1)N(Cc1ccccn1)c1cc(C(F)(F)F)c(C#N)c(Cl)n1 [compound 285] | at least 90% | – | at least 90%
O=C(O)c1cccc(CN(Cc2ccccn2)c2cc(C(F)(F)F)c(Cl)c(Cl)n2)n1 [compound 305] | at least 90% | – | at least 90%
Nc1c(NCc2ccccn2)nc(Cl)c(Cl)c1C(F)(F)F [compound 176] | at least 90% | – | at least 90%
CCOC(=O)CN(Cc1ccccn1)c1cc(C(F)(F)F)c(Cl)c(Cl)n1 [compound 222] | at least 90% | – | at least 90%
CC(c1cnccn1)N(Cc1ccccn1)c1cc(C(F)(F)F)c(Cl)c(Cl)n1 (stereo not shown) [compound 288] | at least 90% | – | at least 90%
N#Cc1cnc(NCc2ccccn2)cc1C(F)(F)F [compound 22] | at least 90% | at least 90% | –
O=C(CN(Cc1ccccn1)c1cc(C(F)(F)F)c(Cl)c(Cl)n1)OCCO [compound 229] | at least 90% | at least 90% | –
N#Cc1c(Cl)nc(N(Cc2ccccn2)Cc2ccccn2)c(F)c1C(F)(F)F [compound 109] | at least 90% | – | at least 90%
CCOC(=O)CN(Cc1ccccn1)c1cc(C(F)(F)F)c(Cl)c(C(F)(F)F)n1 [compound 223] | at least 90% | – | at least 90%
COC(=O)CCN(Cc1ccccn1)c1cc(C(F)(F)F)c(Cl)c(Cl)n1 [compound 240] | at least 90% | – | at least 90%
Cc1c(NCc2ccccn2)nc(Cl)c(C#N)c1C(F)(F)F [compound 178] | at least 90% | at least 90% | –
FC(F)(F)c1cc(N(CC=C(Cl)Cl)Cc2ccccn2)nc(Cl)c1Cl [compound 221] | at least 90% | – | at least 90%
FC(F)(F)c1cc(N(Cc2ccccn2)Cc2ncccn2)nc(Cl)c1Cl [compound 71] | at least 90% | – | at least 90%
COCCNC(=O)CN(Cc1ccccn1)c1cc(C(F)(F)F)c(Cl)c(Cl)n1 [compound 233] | at least 90% | at least 90% | –
